The assay has as its target T1, Flag-tagged OGT^WT (ncOGT) (UniProt O15294).
T1 sequence: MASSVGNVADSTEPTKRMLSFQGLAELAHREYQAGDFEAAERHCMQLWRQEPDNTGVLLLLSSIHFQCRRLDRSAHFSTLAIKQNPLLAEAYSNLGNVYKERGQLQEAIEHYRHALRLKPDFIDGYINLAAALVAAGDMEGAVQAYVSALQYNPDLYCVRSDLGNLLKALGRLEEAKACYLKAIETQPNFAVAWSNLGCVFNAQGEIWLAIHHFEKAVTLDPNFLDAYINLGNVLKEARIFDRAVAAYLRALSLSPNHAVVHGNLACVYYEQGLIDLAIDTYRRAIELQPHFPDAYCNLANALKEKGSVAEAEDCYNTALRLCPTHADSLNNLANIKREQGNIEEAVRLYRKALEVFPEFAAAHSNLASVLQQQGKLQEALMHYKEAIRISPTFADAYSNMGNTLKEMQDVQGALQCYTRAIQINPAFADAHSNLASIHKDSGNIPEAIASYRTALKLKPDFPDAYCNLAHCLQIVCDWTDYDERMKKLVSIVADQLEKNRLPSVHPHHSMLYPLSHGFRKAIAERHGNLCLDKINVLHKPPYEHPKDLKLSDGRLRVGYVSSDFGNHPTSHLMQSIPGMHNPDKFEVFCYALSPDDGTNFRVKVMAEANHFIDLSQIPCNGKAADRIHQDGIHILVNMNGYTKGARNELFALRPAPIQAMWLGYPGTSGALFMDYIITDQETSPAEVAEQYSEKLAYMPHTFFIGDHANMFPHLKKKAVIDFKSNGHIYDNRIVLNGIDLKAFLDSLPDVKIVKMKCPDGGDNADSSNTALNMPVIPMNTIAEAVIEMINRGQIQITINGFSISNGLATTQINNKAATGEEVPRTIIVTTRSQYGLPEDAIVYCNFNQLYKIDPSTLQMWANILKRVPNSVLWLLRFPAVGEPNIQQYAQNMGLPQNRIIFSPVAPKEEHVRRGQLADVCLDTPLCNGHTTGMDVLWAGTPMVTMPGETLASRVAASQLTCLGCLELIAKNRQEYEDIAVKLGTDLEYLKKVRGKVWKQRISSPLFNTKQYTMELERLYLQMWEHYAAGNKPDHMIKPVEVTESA
Kind of assay: co-IP; A549 cells transfected with Flag-tagged OGT (WT or mutants), with or without EGF (100 ng/ml, 1 h); OGT-associated proteins immunoprecipitated, WB for endogenous partners.

No constants are given. Whether binding was seen depends on the method and setting. In cells and extracts the contact can be indirect. Binding can be weak; no strength is given. Where a sequence is shown, tags or fusion partners need not be part of it.

As for “STAT5, endogenous (human (endogenous in A549))”, the binding entry was “binds”.
“PI3K subunit p85, endogenous (human (endogenous in A549))”: the binding entry was “binds”.

Source of the values: paper PMC9436816.
